{"sequences": {"note": "Amino acid sequences for entries named in this document (tags omitted). A change or cut given only in a name is not applied to a line headed by its entry. Residues count along the entry.", "UniProt Q95X71": "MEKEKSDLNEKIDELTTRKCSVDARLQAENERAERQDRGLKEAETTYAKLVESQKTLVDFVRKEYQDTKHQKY", "UniProt P02769, residues 25-607": "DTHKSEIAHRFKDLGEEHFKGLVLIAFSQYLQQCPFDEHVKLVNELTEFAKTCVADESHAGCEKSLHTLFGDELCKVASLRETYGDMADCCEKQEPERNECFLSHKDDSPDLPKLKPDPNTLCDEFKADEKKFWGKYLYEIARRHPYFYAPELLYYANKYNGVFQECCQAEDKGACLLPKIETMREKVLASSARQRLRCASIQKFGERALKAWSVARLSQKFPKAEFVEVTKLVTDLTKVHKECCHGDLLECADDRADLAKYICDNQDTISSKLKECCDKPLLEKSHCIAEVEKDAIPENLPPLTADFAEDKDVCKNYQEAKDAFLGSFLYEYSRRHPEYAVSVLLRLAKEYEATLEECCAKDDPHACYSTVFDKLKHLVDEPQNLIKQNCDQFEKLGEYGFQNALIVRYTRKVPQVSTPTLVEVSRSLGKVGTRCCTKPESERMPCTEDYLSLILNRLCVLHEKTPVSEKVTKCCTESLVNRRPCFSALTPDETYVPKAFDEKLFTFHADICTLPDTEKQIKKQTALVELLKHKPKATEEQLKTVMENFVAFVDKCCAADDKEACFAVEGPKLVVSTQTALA"}, "source": "paper PMC11722412", "biological_target": "SSNA-1, the Caenorhabditis elegans ortholog of Sjogren's Syndrome Nuclear Antigen 1 (C. elegans) (UniProt Q95X71)", "assay": "co-sedimentation; purified proteins; SSNA-1 filaments (10 μM) or GMPCPP microtubules (10 μM) incubated 10 min at room temperature with ZYG-1 or BSA (1.25 μM), 30 μL; 80,000 rpm (278,088 x g), TLA-120.2, 10 min, 25°C; soluble and pellet fractions by SDS-PAGE and immunoblotting; in triplicate; both purified", "note": "No constants are given. Whether binding was seen depends on the method and setting.", "data": [{"substance": "BSA (from UniProt P02769 25-607)", "values": [{"measurement": "binding", "value": "no binding (tested: 1.25 μM BSA, 10 μM SSNA-1)"}]}]}
